Experiment [1] deals with C-LgBit-ESR1 (human) (UniProt P03372). Description: split reporter; NanoBiT in living HEK-293T cells, transient transfection; DMSO or 10 µM ERX-11 2 hr, then EtOH or 10 nM E2 30 min; luminescence.
In experiment [2] the target is estrogen receptor alpha (ER) (human (endogenous in MCF-7 and ZR-75)) (UniProt P03372). Description: co-IP; endogenous proteins in MCF-7 cells, with or without ERX-11; western blotting.
Experiment [3] shares this target. The experiment in a line: proximity ligation; MCF-7 cells on cover slips (quantified also in ZR-75), vehicle or 10 µM ERX-11 30 min, then 10 nM E2 30 min; Duolink in situ PLA; tamoxifen also tested.
For experiment [4], the target named is C-LgBit-PELP1 (human) (UniProt Q8IZL8). The experiment in a line: split reporter; NanoBiT in living HEK-293T cells, transient transfection; DMSO or 10 µM ERX-11 2 hr, then EtOH or 10 nM E2 30 min; luminescence.
Experiment [5] addresses Purified full-length ER (UniProt P03372). The experiment in a line: pull-down; competition: purified full-length ER with biotin-ERX-11 (small molecule) and E2, with or without 1 µM LXXLL peptide; avidin beads, western blot of ER; both purified.
For experiment [6], the target named is estrogen receptor alpha (ER) (human (endogenous in MCF-7 and ZR-75)) (UniProt P03372). Description: co-IP; endogenous proteins in MCF-7 cells, with or without ERX-11; western blotting. The source holds these as a separate data set. On the technique in general: In western blotting, separated proteins are transferred to a membrane and probed.

By UniProt entry, the sequences of proteins in these tests, tags left out.
UniProt P03372: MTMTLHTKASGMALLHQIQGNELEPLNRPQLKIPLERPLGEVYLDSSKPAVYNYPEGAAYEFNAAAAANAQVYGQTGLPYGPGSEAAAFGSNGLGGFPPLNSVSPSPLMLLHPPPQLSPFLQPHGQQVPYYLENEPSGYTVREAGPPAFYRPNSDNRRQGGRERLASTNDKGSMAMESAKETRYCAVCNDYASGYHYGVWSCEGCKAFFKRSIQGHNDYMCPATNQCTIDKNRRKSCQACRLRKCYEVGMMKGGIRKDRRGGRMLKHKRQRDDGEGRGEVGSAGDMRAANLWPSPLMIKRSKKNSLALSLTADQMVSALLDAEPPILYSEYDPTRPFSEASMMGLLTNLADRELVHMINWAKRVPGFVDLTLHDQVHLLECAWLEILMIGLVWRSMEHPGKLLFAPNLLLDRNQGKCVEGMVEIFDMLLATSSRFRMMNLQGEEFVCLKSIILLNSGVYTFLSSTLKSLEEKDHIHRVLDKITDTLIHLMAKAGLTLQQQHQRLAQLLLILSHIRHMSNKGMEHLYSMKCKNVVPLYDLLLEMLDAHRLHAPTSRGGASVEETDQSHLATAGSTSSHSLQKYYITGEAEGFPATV
UniProt Q8IZL8: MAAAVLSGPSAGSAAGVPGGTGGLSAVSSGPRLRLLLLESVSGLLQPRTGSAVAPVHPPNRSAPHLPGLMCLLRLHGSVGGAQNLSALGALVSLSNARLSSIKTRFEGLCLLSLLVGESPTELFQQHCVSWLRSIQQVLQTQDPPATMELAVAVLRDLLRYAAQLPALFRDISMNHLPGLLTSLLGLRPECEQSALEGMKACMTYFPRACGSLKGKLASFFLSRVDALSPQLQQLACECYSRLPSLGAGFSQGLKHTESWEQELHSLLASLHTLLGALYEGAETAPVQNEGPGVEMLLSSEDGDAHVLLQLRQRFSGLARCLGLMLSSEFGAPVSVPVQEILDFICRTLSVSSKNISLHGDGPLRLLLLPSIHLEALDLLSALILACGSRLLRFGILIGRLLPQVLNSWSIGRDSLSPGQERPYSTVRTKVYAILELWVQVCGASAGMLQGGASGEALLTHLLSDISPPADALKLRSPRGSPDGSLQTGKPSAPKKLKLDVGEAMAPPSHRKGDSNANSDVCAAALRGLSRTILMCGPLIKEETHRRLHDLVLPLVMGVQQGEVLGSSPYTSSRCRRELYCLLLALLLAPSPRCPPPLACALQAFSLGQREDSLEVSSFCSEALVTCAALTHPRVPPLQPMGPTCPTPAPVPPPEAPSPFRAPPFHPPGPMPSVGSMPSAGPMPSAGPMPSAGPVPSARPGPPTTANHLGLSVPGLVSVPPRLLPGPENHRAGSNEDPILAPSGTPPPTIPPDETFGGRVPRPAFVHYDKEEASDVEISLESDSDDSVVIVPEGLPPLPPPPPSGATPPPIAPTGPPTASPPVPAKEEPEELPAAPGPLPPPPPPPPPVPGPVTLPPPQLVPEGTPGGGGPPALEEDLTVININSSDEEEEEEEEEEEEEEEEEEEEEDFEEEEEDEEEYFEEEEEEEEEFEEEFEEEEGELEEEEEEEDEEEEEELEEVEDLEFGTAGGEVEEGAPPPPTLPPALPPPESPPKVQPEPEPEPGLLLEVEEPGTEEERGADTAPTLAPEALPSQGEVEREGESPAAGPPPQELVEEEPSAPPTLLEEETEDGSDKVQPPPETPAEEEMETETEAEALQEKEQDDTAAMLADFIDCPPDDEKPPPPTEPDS

Binding data for eight molecules are collected here from article PMC5548489.

These are yes or no findings as the source states them, for the method shown. For part of these data: Binding seen in cells or lysates may run through a third protein. Some results given as binding are weak or reduced against the parent protein; the word gives no strength.

In the case of “C-SmBit-PELP1 (from UniProt Q8IZL8 1-1130)”, the binding result in experiment [1] was “binds”.
Regarding PELP1 (from UniProt Q8IZL8 1-1130), the binding result in experiment [2] and in experiment [3] was “binds” each time.
As for “C-SmBit-ESR1 (from UniProt P03372 1-595) (receptor)”, the binding result in experiment [4] was “binds”.
With LTARHKILHRLLQEGSPSD [SRC1- LXXLL peptide], the binding entry in experiment [5] is reported as “binds”.
Still for that read-out and setting: the result for DSKGQTKLLQLLTTKSDQM [SRC2- LXXLL peptide] reads “binds”.

B1: TIF1α (protein, UniProt O15164 1-1050)
chain: MEVAVEKAVAAAAAASAAASGGPSAAPSGENEAESRQGPDSERGGEAARLNLLDTCAVCHQNIQSRAPKLLPCLHSFCQRCLPAPQRYLMLPAPMLGSAETPPPVPAPGSPVSGSSPFATQVGVIRCPVCSQECAERHIIDNFFVKDTTEVPSSTVEKSNQVCTSCEDNAEANGFCVECVEWLCKTCIRAHQRVKFTKDHTVRQKEEVSPEAVGVTSQRPVFCPFHKKEQLKLYCETCDKLTCRDCQLLEHKEHRYQFIEEAFQNQKVIIDTLITKLMEKTKYIKFTGNQIQNRIIEVNQNQKQVEQDIKVAIFTLMVEINKKGKALLHQLESLAKDHRMKLMQQQQEVAGLSKQLEHVMHFSKWAVSSGSSTALLYSKRLITYRLRHLLRARCDASPVTNNTIQFHCDPSFWAQNIINLGSLVIEDKESQPQMPKQNPVVEQNSQPPSGLSSNQLSKFPTQISLAQLRLQHMQQQVMAQRQQVQRRPAPVGLPNPRMQGPIQQPSISHQQPPPRLINFQNHSPKPNGPVLPPHPQQLRYPPNQNIPRQAIKPNPLQMAFLAQQAIKQWQISSGQGTPSTTNSTSSTPSSPTITSAAGYDGKAFGSPMIDLSSPVGGSYNLPSLPDIDCSSTIMLDNIVRKDTNIDHGQPRPPSNRTVQSPNSSVPSPGLAGPVTMTSVHPPIRSPSASSVGSRGSSGSSSKPAGADSTHKVPVVMLEPIRIKQENSGPPENYDFPVVIVKQESDEESRPQNANYPRSILTSLLLNSSQSSTSEETVLRSDAPDSTGDQPGLHQDNSSNGKSEWLDPSQKSPLHVGETRKEDDPNEDWCAVCQNGGELLCCEKCPKVFHLSCHVPTLTNFPSGEWICTFCRDLSKPEVEYDCDAPSHNSEKKKTEGLVKLTPIDKRKCERLLLFLYCHEMSLAFQDPVPLTVPDYYKIIKNPMDLSTIKKRLQEDYSMYSKPEDFVADFRLIFQNCAEFNEPDSEVANAGIKLENYFEELLKNLYPEKRFPKPEFRNESEDNKFSDDSDDDFVQPRKKRLKSIEERQLLK
In the case of B1, in experiment [6], the binding result is on record as “binds”.
In the case of ESKGHKKLLQLLTCSSDDR [SRC3/AIB1- LXXLL peptide], the binding entry in experiment [5] is on record as “binds”.
Same read-out and setting: next, SIKTRFEGLCLLSLLVGESPT [PELP1-3 LXXLL peptide]: “binds”.
